PubChem BioAssay AID1224830 | NIAID, 2016

Purpose: 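Genes whose knock-down alters the TNF-alpha reporter response to LPS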 (primary screen)
Cell system: human THP-1 monocytic leukaemia cells, TNF dual-luciferase reporter clone, PMA-differentiated to macrophage-like cells
Knock-down reagent: siRNA pool against human genes, 50 nM
Duration: LPS for 4 h, given about 3 days after siRNA transfection
Challenge: bacterial LPS (TLR4 ligand), 10 ng/ml
Measurement: 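Ratio of firefly to renilla light, scaled to the plate median and expressed as a robust z-score per replicate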
Reading the numbers: TNF reporter robust z-score: higher = stronger TNF reporter response to LPS
Hit rule: 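a well is active when its z-score exceeds 2.8 or falls below -1.5; control wells carry no call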
In all, the deposit lists about 18,000 reagents; shown is a part drawn at random. In the full data, about 2,900 (16%) were called active. 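Calls are made per well; low scores hint the gene aids the LPS response, high scores that it dampens it.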 Unmarked entries are inactive. Repeated entries: four replicate wells of each siRNA pool.

Target gene,PubChem SID,TNF reporter robust z-score
CBS,SID315447731,0.65
CBS,SID315447731,1.13
CBS,SID315447731,0.93
CBS,SID315447731,0.27
PIGM,SID315461063,-0.1
PIGM,SID315461063,-0.14
PIGM,SID315461063,-1.41
PIGM,SID315461063,-1.47
SHB,SID315451413,0.12
SHB,SID315451413,0
SHB,SID315451413,-0.09
NUFIP1,SID315455848,0.6
NUFIP1,SID315455848,-0.01
NUFIP1,SID315455848,-0.04
NUFIP1,SID315455848,0.75
ITGA10,SID315452617,2.25
ITGA10,SID315452617,2.19
ITGA10,SID315452617,-0.01
ITGA10,SID315452617,0.61
PLEKHA7,SID315462202,1.09
PLEKHA7,SID315462202,-1.27
PLEKHA7,SID315462202,-1.79 (active)
PLEKHA7,SID315462202,-0.89
NSG2,SID315456809,0.57
NSG2,SID315456809,-1.05
NSG2,SID315456809,1.68
NSG2,SID315456809,0.89
RGS17,SID315455818,0.23
RGS17,SID315455818,0.79
RGS17,SID315455818,0.88
RGS17,SID315455818,0.91
GABRR3,SID315463057,0.58
GABRR3,SID315463057,0.17
GABRR3,SID315463057,-0.23
GABRR3,SID315463057,0.27
SNX17,SID315453563,-1
SNX17,SID315453563,-0.85
SNX17,SID315453563,-1.29
SNX17,SID315453563,-0.59
MAGEE2,SID315462079,1.02
MAGEE2,SID315462079,0.31
MAGEE2,SID315462079,0.63
NEK3,SID315450210,-0.09
NEK3,SID315450210,1.97
NEK3,SID315450210,2.33
NEK3,SID315450210,-0.11
MAGEA4,SID315449855,-0.14
MAGEA4,SID315449855,-0.01
MAGEA4,SID315449855,-0.26
MAGEA4,SID315449855,0.24
DNM1,SID315448331,-0.58
DNM1,SID315448331,-1.07
DNM1,SID315448331,-0.7
DNM1,SID315448331,-0.61
IL13RA2,SID315449486,-0.7
IL13RA2,SID315449486,-0.19
IL13RA2,SID315449486,-0.83
IL13RA2,SID315449486,-0.41
HSPB2,SID315449347,-1.11
HSPB2,SID315449347,-0.9
HSPB2,SID315449347,-0.54
HSPB2,SID315449347,-0.33
EPRS1,SID315448543,0.52
EPRS1,SID315448543,0.85
EPRS1,SID315448543,-0.18
EPRS1,SID315448543,1.62
GALNT12,SID315459390,-0.51
GALNT12,SID315459390,0.19
GALNT12,SID315459390,0.88
TMEM266,SID315461581,0.35
TMEM266,SID315461581,-0.24
TMEM266,SID315461581,0.36
TMEM266,SID315461581,0.8
OR1D5,SID315452527,0.61
OR1D5,SID315452527,-0.21
OR1D5,SID315452527,-0.01
OR1D5,SID315452527,-0.44
SCUBE2,SID315458582,-0.39
SCUBE2,SID315458582,-1.23
SCUBE2,SID315458582,-0.16
SCUBE2,SID315458582,0.23
ACP3,SID315447158,-0.02
ACP3,SID315447158,0.75
ACP3,SID315447158,-1.46
ACP3,SID315447158,-1.02
ERICH6,SID315461904,0.44
ERICH6,SID315461904,0.12
ERICH6,SID315461904,1.27
ERICH6,SID315461904,1.99
KLF3,SID315456601,0.53
KLF3,SID315456601,0.1
KLF3,SID315456601,0.04
KLF3,SID315456601,1.1
CDK6,SID315447847,-0.58
CDK6,SID315447847,1.17
CDK6,SID315447847,-0.86
CDK6,SID315447847,0.65
TUBD1,SID315456530,-0.53
TUBD1,SID315456530,-0.98
TUBD1,SID315456530,-1.29
TUBD1,SID315456530,-1.24
DLX4,SID315448324,-1.53 (active)
DLX4,SID315448324,-0.79
DLX4,SID315448324,-1.15
DLX4,SID315448324,-0.98
SHISAL2A,SID315464246,-0.14
SHISAL2A,SID315464246,2.2
SHISAL2A,SID315464246,-0.09
SHISAL2A,SID315464246,0.83
OR11L1,SID315464679,0
OR11L1,SID315464679,0.75
OR11L1,SID315464679,-0.5
OR11L1,SID315464679,-1.1

Part of the list above, set out differently.
Target gene | PubChem SID | TNF reporter robust z-score
ACP3 | SID315447158 | -1.02
ERICH6 | SID315461904 | 0.44
ERICH6 | SID315461904 | 0.12
ERICH6 | SID315461904 | 1.27
ERICH6 | SID315461904 | 1.99
KLF3 | SID315456601 | 0.53
KLF3 | SID315456601 | 0.1
KLF3 | SID315456601 | 0.04
KLF3 | SID315456601 | 1.1
CDK6 | SID315447847 | -0.58
CDK6 | SID315447847 | 1.17
CDK6 | SID315447847 | -0.86
CDK6 | SID315447847 | 0.65
